Reference: patent US20260374814A1, “Synthetic Peptide And Construct” (TOAGOSEI CO., LTD, priority 2022, published 2026)
Some entries share one result that the patent states for a list of compounds. Some ranges recur; such a range may be that of the whole group of compounds.

Tested on: NSC-34 cells
Test: Evaluation of Cell Membrane Permeability by Flow Cytometry (transfer of FAM construct into NSC-34 cells)
Assay type: cell-based, mouse
Details: for transfer in the cells compared with adding FAM alone / value of MFI compared with Reference Example 1 (FAM alone): 20 μM, 20 hours, versus FAM alone (Reference Example 1); for cell membrane permeability: concluded from MFI of FAM constructs versus FAM alone
Protocol: As the eukaryotic cells, NSC-34 cells (mouse motor neuron-like hybrid cell line) were used and the cell membrane permeability of the peptides 1 to 3 was analyzed. As a culture medium of the NSC-34 cell, 10% fetal bovine serum (FBS)-containing Dulbecco's modified Eagle's medium (DMEM (Cat No. 044-29765, manufactured by FUJIFILM Wako Pure Chemical Corporation)) was used. The samples 1 to 3 were each dissolved in dimethyl sulfoxide (DMSO) to prepare sample solutions 1 to 3 with a sample concentration of 4 mM. Then, the sample solutions were diluted in the culture medium to prepare 40 μM sample solutions 1 to 3. The aforementioned prepared sample solutions 1 to 3 were used in Examples 1 to 3, and the FAM solution was used in Reference Example 1.
The NSC-34 cell was suspended in the culture medium to prepare a cell suspension of 2×10^5 cells/mL. The cell suspension was added by 1 mL to a well of a commercially available six-hole (well) plate (manufactured by AGC TECHNO GLASS Co., Ltd.) so as to seed the NSC-34 cell to be 2×10^5 cells/well. Next, 1 mL of the 40 μM sample solution 1 was added to the well so that the sample concentration in the culture medium in the well became 20 μM. After that, the six-well plate was left at rest in a cell culture apparatus, and incubated for 20 hours at 37 °C under a 5% CO2 condition.
After the 20-hour incubation, the culture supernatant was removed from the well and the cells in the well were cleaned twice with 1 mL of PBS. Next, 100 μL of the 0.25% trypsin/EDTA solution was added to the well and the incubation was performed for three minutes at 37 °C. After the incubation, 900 μL of the culture medium was added to the well to deactivate the trypsin. Subsequently, the cell suspension in the well was transferred to a tube and the cells were collected. This tube was subjected to five-minute centrifugal separation at 4 °C under a condition of 210×g. After the centrifugal separation, the supernatant was removed and the precipitate (cell pellet) was suspended (cleaned) with 1 mL of PBS, which was followed by the centrifugal separation under the same condition as that described above. After this operation was repeated twice, the supernatant was removed and thus, the cells (cell pellet) cultured in the culture medium containing the sample 1 were obtained.
Regarding the obtained cells (cell pellet), the cell membrane permeability of the sample 1 was analyzed using a flow cytometer. As the flow cytometer, On-Chip Flowcytometer (manufactured by On-Chip Biotechnologies Co., LTD.) was used.
For such an analysis, the obtained cell pellet was suspended with 100 μL of on-chip T buffer to prepare a cell suspension for analysis.
Using the aforementioned flow cytometer, gating based on forward scatter (FSC) and side scatter (SSC) was performed to set a gate about a cell group to be analyzed, and the fluorescence intensity was measured about the cell group in this gate. Note that the number of cells of the cell group was set to at least 10000 or more in the analysis. The fluorescence intensity was measured using a fluorescence detector FL2 of the flow cytometer (optimum detection wavelength around 543 nm) capable of detecting the fluorescence wavelength of FAM. Regarding this measurement result, the analysis was performed using commercially available analysis software “FlowJo” (manufactured by TreeStar) to obtain mean fluorescence intensity (MFI) of the cell group to be measured.
The process similar to that in Example 1 was performed except that the sample solution 1 was changed to any one of sample solutions 2 to 3.
The process similar to that in Example 1 was performed except that the sample 1 was changed to the fluorescent dye FAM. Note that the FAM concentration in the culture medium containing the FAM was the same as the concentration of the sample 1 in Example 1 (that is, the FAM concentration was 20 μM in the culture medium in the well).

Substance: Ac-SASAG-FAM [Example 1]
- transfer in the cells compared with adding FAM alone: transferred in the cells more than in the case of adding the FAM alone
- value of MFI compared with Reference Example 1 (FAM alone): higher in Examples 1 to 3 than in Reference Example 1

Substance: Ac-SASASAG-FAM (N-terminal acetyl; C-terminal FAM) [Example 2, construct: peptide 2 (SASASAG), N-terminus acetylated, with FAM bonded to the C-terminus amino acid residue]
- transfer in the cells compared with adding FAM alone: transferred in the cells more than in the case of adding the FAM alone
- value of MFI compared with Reference Example 1 (FAM alone): higher in Examples 1 to 3 than in Reference Example 1

Substance: Ac-SASASASAG-FAM (N-terminal acetyl; C-terminal FAM) [Example 3, construct: peptide 3 (…), N-terminus acetylated, with FAM bonded to the C-terminus amino acid residue]
- transfer in the cells compared with adding FAM alone: transferred in the cells more than in the case of adding the FAM alone
- value of MFI compared with Reference Example 1 (FAM alone): higher in Examples 1 to 3 than in Reference Example 1

Substance: SASASAG [Peptide 2, synthetic peptide SASASAG]
- cell membrane permeability: have the cell membrane permeability

Substance: SASASASAG [Peptide 3, synthetic peptide …]
- cell membrane permeability: have the cell membrane permeability
